In the supplement of paper PMC10849652:
The list shows a part of the results.

Amino acid sequences for entries named in this document (tags omitted). A change or cut given only in a name is not applied to a line headed by its entry.
UniProt Q7Z3C6: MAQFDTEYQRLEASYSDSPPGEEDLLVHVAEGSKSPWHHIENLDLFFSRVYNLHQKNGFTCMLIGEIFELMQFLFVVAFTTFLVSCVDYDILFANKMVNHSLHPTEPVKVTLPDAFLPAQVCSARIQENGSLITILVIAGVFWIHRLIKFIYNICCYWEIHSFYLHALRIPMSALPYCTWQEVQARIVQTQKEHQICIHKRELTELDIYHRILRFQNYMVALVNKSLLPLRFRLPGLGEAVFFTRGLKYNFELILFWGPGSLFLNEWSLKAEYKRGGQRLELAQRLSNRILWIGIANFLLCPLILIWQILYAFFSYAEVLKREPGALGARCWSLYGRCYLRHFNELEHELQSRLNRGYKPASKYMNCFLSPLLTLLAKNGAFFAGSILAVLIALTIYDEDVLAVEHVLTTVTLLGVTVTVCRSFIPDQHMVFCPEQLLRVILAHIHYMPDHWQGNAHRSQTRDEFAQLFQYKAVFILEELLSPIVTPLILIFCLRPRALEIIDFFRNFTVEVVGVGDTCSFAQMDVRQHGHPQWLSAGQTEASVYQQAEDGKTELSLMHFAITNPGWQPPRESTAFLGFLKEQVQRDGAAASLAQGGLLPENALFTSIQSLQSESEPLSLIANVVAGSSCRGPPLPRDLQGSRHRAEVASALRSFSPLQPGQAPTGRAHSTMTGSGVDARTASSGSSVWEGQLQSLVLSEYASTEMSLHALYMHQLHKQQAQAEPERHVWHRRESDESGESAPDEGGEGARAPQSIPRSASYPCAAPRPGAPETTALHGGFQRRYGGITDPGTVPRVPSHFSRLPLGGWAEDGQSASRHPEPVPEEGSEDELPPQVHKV
UniProt Q676U5: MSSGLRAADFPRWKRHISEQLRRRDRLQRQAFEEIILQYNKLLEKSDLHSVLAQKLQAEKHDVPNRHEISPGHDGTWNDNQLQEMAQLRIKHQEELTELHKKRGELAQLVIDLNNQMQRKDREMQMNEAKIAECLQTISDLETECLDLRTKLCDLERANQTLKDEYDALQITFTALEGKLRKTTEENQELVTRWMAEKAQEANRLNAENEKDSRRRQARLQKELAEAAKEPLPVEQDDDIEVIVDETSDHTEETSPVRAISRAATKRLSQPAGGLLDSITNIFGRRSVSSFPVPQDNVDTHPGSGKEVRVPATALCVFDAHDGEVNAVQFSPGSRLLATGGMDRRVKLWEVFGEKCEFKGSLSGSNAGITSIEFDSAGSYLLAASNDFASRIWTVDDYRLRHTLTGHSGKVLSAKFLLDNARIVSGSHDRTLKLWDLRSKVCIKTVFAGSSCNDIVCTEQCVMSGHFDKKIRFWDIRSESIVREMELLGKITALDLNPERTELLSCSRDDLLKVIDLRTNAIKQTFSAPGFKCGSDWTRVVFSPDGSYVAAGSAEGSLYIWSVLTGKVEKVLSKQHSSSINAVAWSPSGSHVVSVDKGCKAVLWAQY
UniProt O00244: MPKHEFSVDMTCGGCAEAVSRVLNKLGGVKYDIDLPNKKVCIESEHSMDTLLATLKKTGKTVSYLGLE
UniProt P56378: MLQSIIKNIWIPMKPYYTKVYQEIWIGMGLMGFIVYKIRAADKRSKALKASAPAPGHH
UniProt Q9NXU5: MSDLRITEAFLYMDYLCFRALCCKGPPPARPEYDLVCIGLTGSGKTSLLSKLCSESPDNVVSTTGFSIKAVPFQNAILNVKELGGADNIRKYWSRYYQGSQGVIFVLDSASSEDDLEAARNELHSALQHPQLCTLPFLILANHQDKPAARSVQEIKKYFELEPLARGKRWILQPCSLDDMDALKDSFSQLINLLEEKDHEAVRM
UniProt P25705: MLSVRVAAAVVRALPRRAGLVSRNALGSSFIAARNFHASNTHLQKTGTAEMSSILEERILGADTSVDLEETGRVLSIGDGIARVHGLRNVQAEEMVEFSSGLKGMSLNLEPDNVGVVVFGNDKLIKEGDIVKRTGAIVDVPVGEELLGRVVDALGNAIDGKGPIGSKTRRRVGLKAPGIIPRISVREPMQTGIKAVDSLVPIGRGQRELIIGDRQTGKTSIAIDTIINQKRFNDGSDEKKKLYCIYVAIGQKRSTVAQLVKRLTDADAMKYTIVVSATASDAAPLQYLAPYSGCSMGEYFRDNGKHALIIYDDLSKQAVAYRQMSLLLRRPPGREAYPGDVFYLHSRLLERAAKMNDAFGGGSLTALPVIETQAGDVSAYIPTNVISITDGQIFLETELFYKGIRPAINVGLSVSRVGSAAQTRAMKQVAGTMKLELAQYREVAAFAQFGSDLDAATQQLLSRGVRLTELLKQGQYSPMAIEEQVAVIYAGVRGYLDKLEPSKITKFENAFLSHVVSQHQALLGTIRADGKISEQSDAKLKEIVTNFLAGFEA
UniProt Q96BY7: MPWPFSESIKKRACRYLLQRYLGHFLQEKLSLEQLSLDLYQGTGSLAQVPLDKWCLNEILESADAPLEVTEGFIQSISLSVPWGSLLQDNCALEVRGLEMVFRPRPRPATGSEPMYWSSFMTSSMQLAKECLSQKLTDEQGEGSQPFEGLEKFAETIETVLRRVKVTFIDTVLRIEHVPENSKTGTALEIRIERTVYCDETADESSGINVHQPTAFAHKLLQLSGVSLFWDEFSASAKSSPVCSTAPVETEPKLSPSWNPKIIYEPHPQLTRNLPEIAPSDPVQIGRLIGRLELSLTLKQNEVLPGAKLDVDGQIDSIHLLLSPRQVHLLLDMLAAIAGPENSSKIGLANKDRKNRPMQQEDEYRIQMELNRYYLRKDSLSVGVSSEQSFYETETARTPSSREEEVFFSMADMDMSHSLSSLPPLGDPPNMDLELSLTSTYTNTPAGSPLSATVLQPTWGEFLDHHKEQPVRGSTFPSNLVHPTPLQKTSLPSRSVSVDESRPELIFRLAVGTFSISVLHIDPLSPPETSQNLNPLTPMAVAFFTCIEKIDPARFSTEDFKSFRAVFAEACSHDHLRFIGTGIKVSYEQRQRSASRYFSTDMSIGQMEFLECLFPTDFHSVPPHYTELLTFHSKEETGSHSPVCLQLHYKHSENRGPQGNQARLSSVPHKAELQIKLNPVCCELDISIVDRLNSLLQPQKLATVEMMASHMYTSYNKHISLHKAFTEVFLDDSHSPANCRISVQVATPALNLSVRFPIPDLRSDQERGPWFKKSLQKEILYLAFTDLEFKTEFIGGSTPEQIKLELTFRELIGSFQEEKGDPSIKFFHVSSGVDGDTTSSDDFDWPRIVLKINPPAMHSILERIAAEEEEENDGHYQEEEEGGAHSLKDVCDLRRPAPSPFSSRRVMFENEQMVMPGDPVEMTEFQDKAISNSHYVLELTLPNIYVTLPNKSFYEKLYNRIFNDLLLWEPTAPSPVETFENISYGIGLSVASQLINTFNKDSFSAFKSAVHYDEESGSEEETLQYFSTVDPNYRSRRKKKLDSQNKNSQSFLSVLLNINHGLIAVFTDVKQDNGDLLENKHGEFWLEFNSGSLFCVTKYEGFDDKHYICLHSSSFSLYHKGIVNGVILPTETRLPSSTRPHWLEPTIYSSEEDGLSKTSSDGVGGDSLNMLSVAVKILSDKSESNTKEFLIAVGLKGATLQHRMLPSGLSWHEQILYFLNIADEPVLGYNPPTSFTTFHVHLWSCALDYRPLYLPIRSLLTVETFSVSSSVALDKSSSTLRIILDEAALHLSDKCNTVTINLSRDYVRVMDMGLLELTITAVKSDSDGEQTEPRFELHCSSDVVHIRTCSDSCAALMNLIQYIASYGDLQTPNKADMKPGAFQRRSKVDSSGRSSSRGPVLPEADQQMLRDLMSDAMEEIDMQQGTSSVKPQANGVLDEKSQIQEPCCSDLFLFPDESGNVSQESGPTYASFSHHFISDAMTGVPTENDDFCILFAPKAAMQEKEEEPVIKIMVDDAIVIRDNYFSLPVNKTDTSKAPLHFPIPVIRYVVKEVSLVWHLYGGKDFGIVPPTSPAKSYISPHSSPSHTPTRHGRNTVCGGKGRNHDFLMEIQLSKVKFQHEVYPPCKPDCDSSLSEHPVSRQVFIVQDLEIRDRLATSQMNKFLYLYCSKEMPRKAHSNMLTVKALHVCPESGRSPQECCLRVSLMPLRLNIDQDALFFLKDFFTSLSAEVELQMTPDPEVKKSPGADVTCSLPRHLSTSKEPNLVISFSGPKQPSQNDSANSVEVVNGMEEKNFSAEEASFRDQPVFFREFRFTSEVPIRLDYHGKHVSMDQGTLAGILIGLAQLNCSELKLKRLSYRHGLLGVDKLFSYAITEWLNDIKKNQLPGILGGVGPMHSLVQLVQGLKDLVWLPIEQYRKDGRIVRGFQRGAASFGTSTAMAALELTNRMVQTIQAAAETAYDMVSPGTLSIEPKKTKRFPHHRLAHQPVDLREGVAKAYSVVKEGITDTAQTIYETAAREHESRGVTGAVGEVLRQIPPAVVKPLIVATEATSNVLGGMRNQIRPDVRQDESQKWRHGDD
UniProt P36404: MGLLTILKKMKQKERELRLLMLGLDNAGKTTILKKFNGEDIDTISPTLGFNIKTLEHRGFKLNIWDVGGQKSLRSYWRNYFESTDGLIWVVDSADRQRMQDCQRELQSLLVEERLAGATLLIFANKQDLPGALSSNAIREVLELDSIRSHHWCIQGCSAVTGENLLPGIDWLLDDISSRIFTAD
UniProt P21281, whole entry, looked up: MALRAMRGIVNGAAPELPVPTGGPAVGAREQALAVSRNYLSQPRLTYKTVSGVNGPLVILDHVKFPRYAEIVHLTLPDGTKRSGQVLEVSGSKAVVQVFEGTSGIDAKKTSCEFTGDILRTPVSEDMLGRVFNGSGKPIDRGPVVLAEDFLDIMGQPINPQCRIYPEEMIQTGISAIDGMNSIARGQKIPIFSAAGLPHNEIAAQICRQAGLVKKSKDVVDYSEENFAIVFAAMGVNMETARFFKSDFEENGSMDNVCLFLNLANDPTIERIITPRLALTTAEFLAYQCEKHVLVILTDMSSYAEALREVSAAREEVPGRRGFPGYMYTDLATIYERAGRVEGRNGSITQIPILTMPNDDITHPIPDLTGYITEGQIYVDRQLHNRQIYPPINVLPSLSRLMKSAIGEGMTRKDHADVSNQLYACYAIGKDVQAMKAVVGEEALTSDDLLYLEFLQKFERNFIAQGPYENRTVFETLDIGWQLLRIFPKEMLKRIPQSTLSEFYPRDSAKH
UniProt P14415, whole entry, looked up: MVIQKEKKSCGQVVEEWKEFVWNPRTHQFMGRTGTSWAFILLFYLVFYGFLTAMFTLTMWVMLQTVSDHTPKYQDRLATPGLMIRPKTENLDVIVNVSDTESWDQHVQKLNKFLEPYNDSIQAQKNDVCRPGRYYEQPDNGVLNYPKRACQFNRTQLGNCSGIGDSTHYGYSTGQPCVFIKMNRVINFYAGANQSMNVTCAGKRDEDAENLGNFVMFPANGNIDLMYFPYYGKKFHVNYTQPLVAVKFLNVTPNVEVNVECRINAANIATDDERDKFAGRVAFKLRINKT
UniProt Q93084: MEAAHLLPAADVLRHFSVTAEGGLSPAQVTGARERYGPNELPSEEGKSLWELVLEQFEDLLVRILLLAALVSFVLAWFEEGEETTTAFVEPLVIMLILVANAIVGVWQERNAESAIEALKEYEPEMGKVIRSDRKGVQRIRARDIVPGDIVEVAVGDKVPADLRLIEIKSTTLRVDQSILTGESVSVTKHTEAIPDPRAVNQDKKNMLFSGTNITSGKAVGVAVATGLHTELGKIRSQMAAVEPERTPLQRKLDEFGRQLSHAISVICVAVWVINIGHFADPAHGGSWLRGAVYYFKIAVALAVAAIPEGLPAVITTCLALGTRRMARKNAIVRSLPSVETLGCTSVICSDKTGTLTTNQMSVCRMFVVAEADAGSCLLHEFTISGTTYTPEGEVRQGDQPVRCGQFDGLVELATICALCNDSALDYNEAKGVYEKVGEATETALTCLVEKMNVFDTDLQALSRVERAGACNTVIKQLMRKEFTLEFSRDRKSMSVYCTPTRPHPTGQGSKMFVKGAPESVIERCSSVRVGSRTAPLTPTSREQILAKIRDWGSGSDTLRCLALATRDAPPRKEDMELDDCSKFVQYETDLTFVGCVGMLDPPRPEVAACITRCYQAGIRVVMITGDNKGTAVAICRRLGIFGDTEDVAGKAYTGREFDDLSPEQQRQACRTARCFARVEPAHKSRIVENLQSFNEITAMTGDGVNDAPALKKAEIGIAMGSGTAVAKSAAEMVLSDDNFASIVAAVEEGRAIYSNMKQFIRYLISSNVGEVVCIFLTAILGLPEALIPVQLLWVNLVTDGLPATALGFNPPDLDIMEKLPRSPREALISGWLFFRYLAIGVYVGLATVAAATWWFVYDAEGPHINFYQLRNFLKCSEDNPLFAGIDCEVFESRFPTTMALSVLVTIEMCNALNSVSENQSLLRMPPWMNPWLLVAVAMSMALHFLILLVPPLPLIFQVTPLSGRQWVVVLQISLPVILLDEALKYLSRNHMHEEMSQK

compound: NC(=O)Nc1cc(-c2cccc(F)c2)sc1C(=O)N[C@H]1CCCNC1; assay: log2 fold change, soluble protein after heating vs DMSO (PISA); higher = thermal stabilisation; K562 cells, 10 uM, 30 min; active = over 0.2 and 3.5 SD of the protein, either way, in both replicates (recomputed)
In short: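 Soluble protein was defined as the supernatant after 21,000xg for 90 min. It came from K562 cells at 2×10^6 cells/mL given 10 μM compound for 30 min, heated in aliquots for 3 min across 48°C-58°C, pooled, and extracted in PBS with 0.5% NP-40 at 4°C, and was quantified by TMTpro 16plex LC-MS/MS with equalised channel sums. Thermal stability against control samples, from duplicates, is reported as log2 fold change.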

log2 fold change, inactive:
ATG9A (UniProt Q7Z3C6) 0.019
ASPH (UniProt Q12797) 0.032
ATG16L1 (UniProt Q676U5) -0.053
ARPC1B (UniProt O15143) -0.001
ARPC4 isoform 3 (UniProt P59998) 0.005
ATP7B (UniProt P35670) -0.051
ARMT1 (UniProt Q9H993) -0.134
ATOX1 (UniProt O00244) 0.175
ATP5MPL (UniProt P56378) -0.015
ATG2A isoform 3 (UniProt Q2TAZ0) -0.056
ARL15 (UniProt Q9NXU5) -0.049
ATP5F1A (UniProt P25705) 0.01
ATG2B (UniProt Q96BY7) 0.01
ARL2 (UniProt P36404) -0.003
ATP6V1C1 (UniProt P21283) -0.015
ATP2A2 (UniProt P16615) -0.017
ATP6V1B2 (UniProt P21281) 0.001
ATP6V0A1 isoform 3 (UniProt Q93050) -0.051
ARPC5 (UniProt O15511) 0.026
ATP1B2 (UniProt P14415) 0.007
ASNA1 (UniProt O43681) 0.045
ATP2A3 isoform 2 (UniProt Q93084) -0.008

Quoted at random: 2 records from the list
log2 fold change, inactive:
ATP2A2 (UniProt P16615) -0.017
ARL15 (UniProt Q9NXU5) -0.049
